Measured values: patent US20260285857A1, “BICYCLIC AND HETEROCYCLIC AMIDE COMPOUNDS” (priority 2024, published 2026)
At least one structure is not confirmed: it was looked up by name or label, or the drawing left a doubt.

Tested on: immunoglobulin light chain protein WIL-FL T46L
Assay: Differential scanning fluorimetry (thermal shift) assay
Format: binding
Conditions: temperature shift [Tm]compound-[Tm]vehicle, recombinant WIL-FL T46L

Row | Structure (SMILES) | DSF (Table A) | DSF (Table B)
1 | Cc1cc(N2CC[C@](C)(c3ccccc3)C2)cn2nc(C34CC(CO3)C4CO)nc12 (stereo partly drawn) [Compound 97] | ***** (>2.5° C.=*****) | 
2 | Cc1cc(N2CC[C@](C)(c3ccccc3)C2)cn2nc(C(=O)N3CC4CC3CN(c3ccnc(C(=O)O)c3)C4)nc12 (stereo partly drawn) [Compound 279] | ***** (>2.5° C.=*****) | 
3 | Cc1cc(N2CC[C@](C)(c3ccccc3)C2)cn2nc(C3OC4(Cn5ncnc5C)CC3(C(N)=O)C4)nc12 (stereo partly drawn) [Compound 535] |  | ***** (>2.5° C.=*****)
4 | Cc1cc(N2CC[C@](C)(c3ccccc3)C2)cn2nc(C34CC(CO3)C4c3nc(NC(=O)CC(C)(C)C(=O)O)n[nH]3)nc12 (stereo partly drawn) [Compound 553] |  | ***** (>2.5° C.=*****)
5 | Cc1cc(N2CC[C@](C)(c3ccccc3)C2)cn2nc(C(=O)N3CCn4cc(C(=O)O)nc4C3)nc12 [Compound 605] |  | ***** (>2.5° C.=*****)
6 | Cc1cc(N2CC[C@](C)(c3ccccc3)C2)cn2nc(C(=O)N3CC[C@@]4(CCN(c5cc(N)cc(C(=O)O)n5)C4)C3)nc12 [Compound 705, 4-amino-6-[(5R)-2-[8-methyl-6-[(3R)-3-methyl-3-phenyl-pyrrolidin-1-yl]-[1,2,4]triazolo[1,5-a]pyridine-2-carbonyl]-2,7-diazaspiro[4.4]nonan-7-yl]pyridine-2-carboxylic acid] |  | ***** (>2.5° C.=*****)
7 | Cc1cc(N2CC[C@](C)(c3ccccc3)C2)cn2nc(C(=O)N3CC[C@@]4(CCN(C(=O)CC56CC(C(=O)O)(C5)C6)C4)C3)nc12 [Compound 728] |  | ***** (>2.5° C.=*****)
8 | CCC1(n2ccc(C(F)(F)F)n2)CN(c2cc(C)c3nc(C(=O)N4CC[C@@]5(CCN(c6cccc(C(=O)O)n6)C5)C4)nn3c2)C1 [Compound 754, 6-[(5R)-2-[6-[3-ethyl-3-[3-(trifluoromethyl)pyrazol-1-yl]azetidin-1-yl]-8-methyl-[1,2,4]triazolo[1,5-a]pyridine-2-carbonyl]-2,7-diazaspiro[4.4]nonan-7-yl]pyridine-2-carboxylic acid] |  | *** (>1-1.5° C.=***)
9 | Cc1cc(N2CC[C@](C)(c3ccccc3)C2)cn2nc(C(=O)NC3CCC(c4ccc(F)c(C(=O)O)c4)CC3)nc12 (stereo partly drawn) [Compound 761, 2-fluoro-5-[4-[[8-methyl-6-[(3R)-3-methyl-3-phenyl-pyrrolidin-1-yl]-[1,2,4]triazolo[1,5-a]pyridine-2-carbonyl]amino]cyclohexyl]benzoic acid] |  | ***** (>2.5° C.=*****)
